# Measured values from the supplement of paper PMC4604168 (melanoma cell lines).
# The other results are listed elsewhere or left out. Repeats are few or missing, and single values can be far off.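 Cells were imaged in 1,536-well plates, and nuclei stained with an antibody against cleaved PARP were counted against all DNA-stained nuclei to give the apoptosis fraction. Screening doses were chosen to leave most cells alive, and resting and induced cleaved-PARP levels differ strongly between cell lines.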
# Tests used:
# Assay in all cases: cleaved PARP positive nuclei fraction relative to DMSO control; melanoma cells; higher = more apoptosis
# Details in all cases: library dose: low library concentration; 72 h
# 501Mel = system: 501Mel
# A101D = system: A101D
# A2058 = system: A2058
# C32 = system: C32
# CBRC008 = system: CBRC008 (line from a melanoma biopsy)
# CBRC014 = system: CBRC014 (line from a melanoma biopsy)
# CBRC016 = system: CBRC016 (line from a melanoma biopsy)
# CBRC017 = system: CBRC017 (line from a melanoma biopsy)
# COLO792 = system: COLO792
# COLO800 = system: COLO800
# COLO829 = system: COLO829
# G361 = system: G361
# IPC-298 = system: IPC-298
# IST-MEL1 = system: IST-MEL1
# LB2518-MEL = system: LB2518-MEL
# LOXIMVI = system: LOXIMVI
Structure (SMILES),cleaved PARP positive nuclei fraction (501Mel) [%],cleaved PARP positive nuclei fraction (A101D) [%],cleaved PARP positive nuclei fraction (A2058) [%],cleaved PARP positive nuclei fraction (C32) [%],cleaved PARP positive nuclei fraction (CBRC008) [%],cleaved PARP positive nuclei fraction (CBRC014) [%],cleaved PARP positive nuclei fraction (CBRC016) [%],cleaved PARP positive nuclei fraction (CBRC017) [%],cleaved PARP positive nuclei fraction (COLO792) [%],cleaved PARP positive nuclei fraction (COLO800) [%],cleaved PARP positive nuclei fraction (COLO829) [%],cleaved PARP positive nuclei fraction (G361) [%],cleaved PARP positive nuclei fraction (IPC-298) [%],cleaved PARP positive nuclei fraction (IST-MEL1) [%],cleaved PARP positive nuclei fraction (LB2518-MEL) [%],cleaved PARP positive nuclei fraction (LOXIMVI) [%]
"CC(=O)O[C@@]12CO[C@@H]1C[C@H](O)[C@@]1(C)C(=O)[C@H](O)C3=C(C)[C@@H](OC(=O)[C@H](O)[C@@H](NC(=O)OC(C)(C)C)c4ccccc4)C[C@@](O)([C@@H](OC(=O)c4ccccc4)[C@H]21)C3(C)C [Docetaxel] + COc1cc(N2CCC(N3CCN(C)CC3)CC2)ccc1Nc1ncc(Cl)c(Nc2ccccc2S(=O)(=O)C(C)C)n1 [NVP-TAE684] (first compound 0.0001 µM, partner dose 0.08 µM)",93.6,44.3,4130,268,542,177,266,139,320,210,206,1120,313,141,193,74
"NC1(c2ccc(-c3nc4ccn5c(=O)[nH]nc5c4cc3-c3ccccc3)cc2)CCC1 + COc1ccc2c(c1)CCC1C2CCC2(C)C(NCCCCCCN3C(=O)C=CC3=O)CCC12 [U73122] (first compound 0.4 µM, partner dose 0.4 µM)",83.2,61.4,225,112,154,108,97.3,239,97.3,53.4,62,148,154,130,85.7,191
"CCN(CC)CCNC(=O)c1c(C)[nH]c(/C=C2\C(=O)Nc3ccc(F)cc32)c1C [sunitinib] + COc1ccc(-c2ccc3c(N4CCOCC4)nc(N4C[C@@H](C)O[C@@H](C)C4)nc3n2)cc1CO [KU0063794] (first compound 0.4 µM, partner dose 0.02 µM)",148,51.7,149,80.6,76.2,118,16.5,105,116,51.8,57,107,67.6,91.9,67.8,36.4
"CCN(CC)CCNC(=O)c1c(C)[nH]c(/C=C2\C(=O)Nc3ccc(F)cc32)c1C [sunitinib] + COC(=O)c1sccc1S(=O)(=O)Nc1ccc(Nc2ccccc2)cc1OC [GSK0660] (first compound 0.4 µM, partner dose 1 µM)",79.7,49.2,166,83.3,151,81,71.6,78.5,37.6,116,60,75.3,61,71.9,201,107
"Cn1sc(=O)n(Cc2ccccc2)c1=O + COc1ccc(-c2ccc3c(N4CCOCC4)nc(N4C[C@@H](C)O[C@@H](C)C4)nc3n2)cc1CO [KU0063794] (first compound 0.4 µM, partner dose 0.02 µM)",139,8.57,259,101,200,109,109,105,130,64.5,137,70.7,62.6,96.5,75.1,53.2
"CS(=O)(=O)c1ccc(C(=O)Nc2ccc(Cl)c(-c3ccccn3)c2)c(Cl)c1 [vismodegib] + O=S(=O)(c1ccccc1)N(CC(F)(F)F)c1ccc(C(O)(C(F)(F)F)C(F)(F)F)cc1 [T0901317] (first compound 1 µM, partner dose 1.4 µM)",39.4,22.4,27.5,16.9,50.9,106,24.9,105,80.7,164,115,142,71.9,41.9,73.6,59.6
"COc1ccc(C2=N[C@@H](c3ccc(Cl)cc3)[C@@H](c3ccc(Cl)cc3)N2C(=O)N2CCNC(=O)C2)c(OC(C)C)c1 [Nutlin-3] + c1cc(-c2cnn3cc(-c4ccc(OCCN5CCCCC5)cc4)cnc23)ccn1 [Dorsomorphin] (first compound 0.1 µM, partner dose 0.4 µM)",92.9,29.5,101,39.4,40.9,126,81.4,120,97,39.8,80,169,64.1,59.9,46.1,166
"CCN(CC)CCNC(=O)c1c(C)[nH]c(/C=C2\C(=O)Nc3ccc(F)cc32)c1C [sunitinib] + Oc1cc(-c2nc(-c3ccccc3)[nH]c2-c2ccncc2)ccc1Cl [L779450] (first compound 0.4 µM, partner dose 0.2 µM)",101,81.5,150,65.5,38.5,70.9,20.3,89.8,71.8,162,58.2,81.4,89.1,89.1,262,93.1
"CCCCCCCCc1ccc(CCC(N)(CO)CO)cc1 [fingolimod] + Oc1nc(-c2ccc(C(F)(F)F)cc2)nc2c1CSCC2 [XAV939] (first compound 2 µM, partner dose 2 µM)",58,10.5,87.5,41.2,142,115,17.1,110,91.3,225,251,39.9,61.1,48,38,101
"NC1(c2ccc(-c3nc4ccn5c(=O)[nH]nc5c4cc3-c3ccccc3)cc2)CCC1 + N#Cc1c(O)c2c(-c3ccc(-c4ccccc4O)cc3)csc2[nH]c1=O [A769662] (first compound 0.4 µM, partner dose 2 µM)",138,15.6,63.9,128,77.9,71.7,21.1,63.2,208,244,76.3,59.2,112,131,66.6,108
"C[C@]1(O)C[C@@H](c2nc(-c3ccc4ccc(-c5ccccc5)nc4c3)c3c(N)nccn32)C1 + Oc1nc(-c2ccc(C(F)(F)F)cc2)nc2c1CSCC2 [XAV939] (first compound 0.4 µM, partner dose 2 µM)",68.3,14.8,78.5,109,240,102,144,115,104,136,106,148,99.4,107,106,36.2
"CCCCCCCCc1ccc(CCC(N)(CO)CO)cc1 [fingolimod] + CCc1ccc(CCOc2ccc(CC3SC(=O)NC3=O)cc2)nc1 [pioglitazone] (first compound 2 µM, partner dose 2 µM)",66.8,22.7,297,87.9,46.6,106,61.8,99.6,142,72.1,109,43.6,198,163,139,84.7
"CC1(C)CCC(c2ccc(Cl)cc2)=C(CN2CCN(c3ccc(C(=O)NS(=O)(=O)c4ccc(N[C@H](CCN5CCOCC5)CSc5ccccc5)c(S(=O)(=O)C(F)(F)F)c4)cc3)CC2)C1 + O=c1cc(-c2cccc3c2Sc2ccccc2S3)oc(N2CCOCC2)c1 [KU55933] (first compound 0.4 µM, partner dose 1 µM)",35.8,45.5,123,105,462,371,211,294,446,226,101,170,63,104,64.8,53.5
"Cn1cnc2c(F)c(Nc3ccc(Br)cc3Cl)c(C(=O)NOCCO)cc21 [selumetinib] + CCCCCCCCCCCC1=C(O)C(=O)C=C(O)C1=O [Embelin] (first compound 0.015 µM, partner dose 1.2 µM)",407,14.6,68.2,195,138,77.3,113,112,68.4,110,68.5,113,202,96.9,123,77.2
"NC1(c2ccc(-c3nc4ccn5c(=O)[nH]nc5c4cc3-c3ccccc3)cc2)CCC1 + O=c1cc(-c2cccc3c2Sc2ccccc2S3)oc(N2CCOCC2)c1 [KU55933] (first compound 0.4 µM, partner dose 1 µM)",61.3,28.4,61.2,171,188,77,35.1,70.5,134,102,154,44.6,89.6,104,61.8,136
"NC(=O)c1ccc(N(C(N)=O)c2c(F)cccc2F)nc1-c1ccc(F)cc1F + Cn1cc(/C=C2\C(=O)Nc3cccnc32)c2ccccc21 [GW441756] (first compound 0.4 µM, partner dose 0.4 µM)",45.9,42.2,22.6,40.3,93.7,82.4,52.5,105,161,80.2,52.2,162,30.4,102,72.1,181
"CC1(C)CCC(c2ccc(Cl)cc2)=C(CN2CCN(c3ccc(C(=O)NS(=O)(=O)c4ccc(N[C@H](CCN5CCOCC5)CSc5ccccc5)c(S(=O)(=O)C(F)(F)F)c4)cc3)CC2)C1 + CC(C)CCN1c2nc(Nc3cc(F)c(O)c(F)c3)ncc2N(C)C(=O)C1C [BID1870] (first compound 0.4 µM, partner dose 0.2 µM)",392,80.8,127,958,151,557,514,410,399,279,258,147,61,190,141,3520
"COc1ccc(C2=N[C@@H](c3ccc(Cl)cc3)[C@@H](c3ccc(Cl)cc3)N2C(=O)N2CCNC(=O)C2)c(OC(C)C)c1 [Nutlin-3] + N#Cc1c(O)c2c(-c3ccc(-c4ccccc4O)cc3)csc2[nH]c1=O [A769662] (first compound 0.1 µM, partner dose 2 µM)",64.2,44.9,114,124,48.6,75.2,74.5,181,82.4,69,60,20.7,59.9,162,76.9,150
"CS(=O)(=O)c1ccc(C(=O)Nc2ccc(Cl)c(-c3ccccn3)c2)c(Cl)c1 [vismodegib] + N#Cc1c(O)c2c(-c3ccc(-c4ccccc4O)cc3)csc2[nH]c1=O [A769662] (first compound 1 µM, partner dose 2 µM)",72.3,24.2,110,38.9,165,81.3,87.3,64.6,106,64.2,77.1,84.5,89.7,38.2,48.9,204

# Another view of some results above.
Structure (SMILES)	cleaved PARP positive nuclei fraction (501Mel) [%]	cleaved PARP positive nuclei fraction (A101D) [%]	cleaved PARP positive nuclei fraction (A2058) [%]	cleaved PARP positive nuclei fraction (C32) [%]	cleaved PARP positive nuclei fraction (CBRC008) [%]	cleaved PARP positive nuclei fraction (CBRC014) [%]	cleaved PARP positive nuclei fraction (CBRC016) [%]	cleaved PARP positive nuclei fraction (CBRC017) [%]	cleaved PARP positive nuclei fraction (COLO792) [%]	cleaved PARP positive nuclei fraction (COLO800) [%]	cleaved PARP positive nuclei fraction (COLO829) [%]	cleaved PARP positive nuclei fraction (G361) [%]	cleaved PARP positive nuclei fraction (IPC-298) [%]	cleaved PARP positive nuclei fraction (IST-MEL1) [%]	cleaved PARP positive nuclei fraction (LB2518-MEL) [%]	cleaved PARP positive nuclei fraction (LOXIMVI) [%]
Cn1sc(=O)n(Cc2ccccc2)c1=O + COc1ccc(-c2ccc3c(N4CCOCC4)nc(N4C[C@@H](C)O[C@@H](C)C4)nc3n2)cc1CO [KU0063794] (first compound 0.4 µM, partner dose 0.02 µM)	139	8.57	259	101	200	109	109	105	130	64.5	137	70.7	62.6	96.5	75.1	53.2
CS(=O)(=O)c1ccc(C(=O)Nc2ccc(Cl)c(-c3ccccn3)c2)c(Cl)c1 [vismodegib] + O=S(=O)(c1ccccc1)N(CC(F)(F)F)c1ccc(C(O)(C(F)(F)F)C(F)(F)F)cc1 [T0901317] (first compound 1 µM, partner dose 1.4 µM)	39.4	22.4	27.5	16.9	50.9	106	24.9	105	80.7	164	115	142	71.9	41.9	73.6	59.6
COc1ccc(C2=N[C@@H](c3ccc(Cl)cc3)[C@@H](c3ccc(Cl)cc3)N2C(=O)N2CCNC(=O)C2)c(OC(C)C)c1 [Nutlin-3] + c1cc(-c2cnn3cc(-c4ccc(OCCN5CCCCC5)cc4)cnc23)ccn1 [Dorsomorphin] (first compound 0.1 µM, partner dose 0.4 µM)	92.9	29.5	101	39.4	40.9	126	81.4	120	97	39.8	80	169	64.1	59.9	46.1	166
CCN(CC)CCNC(=O)c1c(C)[nH]c(/C=C2\C(=O)Nc3ccc(F)cc32)c1C [sunitinib] + Oc1cc(-c2nc(-c3ccccc3)[nH]c2-c2ccncc2)ccc1Cl [L779450] (first compound 0.4 µM, partner dose 0.2 µM)	101	81.5	150	65.5	38.5	70.9	20.3	89.8	71.8	162	58.2	81.4	89.1	89.1	262	93.1
